Experimental data: PubChem BioAssay AID330 (DTP/NCI, 2004)
The list is a part of this screen's results and no random one: it gathers tests that were run many times, whatever their T/C, doses with no T/C, and many T/C values between a quarter and a half above the control. Further doses and runs are listed elsewhere. T/C is the treated group as % of the vehicle group. Some entries give survivors of the animals treated and no T/C: the source files T/C as zero there, which appears to mark a toxic dose or a test without result, not a measured value. Some survivor counts are full or nearly so, which does not show that the dose was tolerated: survival well below the control is almost never listed, so the zero probably covers shortened survival too. Counts of survivors are from the toxicity check (mostly the fifth day) where no day follows; animals may have died later. Schedule codes are those of the source, taken here to give the interval after Q, in days (D) or hours (H), and the number of doses after X. Some molecules as drawn cover several salts, stereoisomers or complexes of the source; a dose is that of the sample tested. Counts like (3×) say how often a value occurs here. Some doses were run more than once; their values stand side by side, smallest first. Where survival is the endpoint, this PubChem deposit counts one and a half times the control or more as active, and values a quarter to a half above the control carry no call in these data; other NCI protocols may use other cut-offs. Some T/C values are followed by the survivors on the day toxicity was checked, most often the fifth; where none is given, no animal had died by that day.

Tested on: P388 leukemia ip, CD2F1 mice, survival T/C
Assay: NCI In Vivo Anticancer Drug Screen. Data for tumor model P388 Leukemia (intraperitoneal) in CD2F1 (CDF1) mice
Conditions: T/C endpoint: median survival time, higher T/C = longer survival
[1] = dose: 40.0 mg/kg/injection, schedule: Q01DX009 (ip), vehicle: water
[2] = dose: 60.0 mg/kg/injection, schedule: Q01DX001 (iv), vehicle: saline
[3] = dose: 100.0 mg/kg/injection, schedule: Q04DX003 (ip), vehicle: saline

O=C1c2ccccc2C(=O)c2c(NCCNCCO)ccc(NCCNCCO)c21
survivor count (dose: 32.0 mg/kg/injection, schedule: Q01DX009 (ip), vehicle: acid diluted with saline): 10 of 10 and 8 of 8 | survivor count (dose: 32.0 mg/kg/injection, schedule: Q01DX009 (ip), vehicle: other): 6 of 6 | survivor count (dose: 32.0 mg/kg/injection, schedule: Q01DX009 (ip), vehicle: saline with Tween-80): 5 of 6 and 6 of 6 (2×) | T/C (dose: 32.0 mg/kg/injection, schedule: Q01DX009 (ip), vehicle: water, evaluated on day 30): 89, 107, 108, 155, 198, 211 % of control | T/C (dose: 32.0 mg/kg/injection, schedule: Q01DX009 (ip), vehicle: water, evaluated on day 60): 86 % of control | survivor count (dose: 32.0 mg/kg/injection, schedule: Q01DX009 (ip), vehicle: water): 10 of 10 and 6 of 6 | T/C (dose: 32.0 mg/kg/injection, schedule: Q04DX003 (ip), vehicle: saline): 130 % of control | T/C (dose: 36.0 mg/kg/injection, schedule: Q01DX001 (iv), vehicle: saline, evaluated on day 45): 127 % of control | T/C (dose: 36.0 mg/kg/injection, schedule: Q01DX001 (iv), vehicle: saline, evaluated on day 60): 140 % of control [7 of 8 alive] | survivor count (dose: 36.0 mg/kg/injection, schedule: Q01DX005 (iv), vehicle: saline): 3 of 8 | T/C (dose: 36.0 mg/kg/injection, schedule: Q04DX003 (ip), vehicle: saline): 162, 181, 268, 289 % of control | T/C (dose: 40.0 mg/kg/injection, schedule: Q01DX001 (iv), vehicle: saline): 131 % of control | survivor count (dose: 40.0 mg/kg/injection, schedule: Q01DX005 (ip), vehicle: other): 6 of 6 | survivor count (dose: 40.0 mg/kg/injection, schedule: Q01DX005 (iv), vehicle: saline): 5 of 8 | survivor count (dose: 40.0 mg/kg/injection, schedule: Q01DX009 (ip), vehicle: distilled water + Tween-80): 4 of 6 | T/C (dose: 40.0 mg/kg/injection, schedule: Q01DX009 (ip), vehicle: saline, evaluated on day 35): 91 % of control | T/C (dose: 40.0 mg/kg/injection, schedule: Q01DX009 (ip), vehicle: saline, evaluated on day 45): 90 % of control | T/C (dose: 40.0 mg/kg/injection, schedule: Q01DX009 (ip), vehicle: saline, evaluated on day 50): 106 % of control | survivor count (dose: 40.0 mg/kg/injection, schedule: Q01DX009 (ip), vehicle: saline): 6 of 6 (2×) | T/C [1]: 131 and 221 % of control | survivor count [1]: 5 of 6 (2×), 5 of 5, 6 of 6 (2×) | T/C (dose: 40.0 mg/kg/injection, schedule: Q04DX003 (iv), vehicle: saline): 142 % of control [7 of 8 alive] | T/C (dose: 48.0 mg/kg/injection, schedule: Q04DX003 (ip), vehicle: saline, evaluated on day 30): 138 % of control (2×) | T/C (dose: 48.0 mg/kg/injection, schedule: Q04DX003 (ip), vehicle: saline, evaluated on day 45): 396 % of control | T/C (dose: 48.0 mg/kg/injection, schedule: Q04DX003 (ip), vehicle: saline, evaluated on day 60): 560 % of control | survivor count (dose: 48.0 mg/kg/injection, schedule: Q04DX003 (iv), vehicle: saline): 4 of 8 and 5 of 5 | survivor count (dose: 50.0 mg/kg/injection, schedule: Q01DX005 (ip), vehicle: saline): 6 of 6 | survivor count (dose: 50.0 mg/kg/injection, schedule: Q01DX005 (iv), vehicle: saline): 2 of 6 | survivor count (dose: 50.0 mg/kg/injection, schedule: Q01DX009 (ip), vehicle: Klucel (hydroxypropylcellulose) (HPC)): 6 of 6 | survivor count (dose: 50.0 mg/kg/injection, schedule: Q01DX009 (ip), vehicle: saline): 5 of 6 and 6 of 6 | survivor count (dose: 50.0 mg/kg/injection, schedule: Q01DX009 (ip), vehicle: water): 4 of 6 | T/C [2]: 144 % of control [2 of 2 alive] | survivor count [2]: 0 of 8 | survivor count (dose: 60.0 mg/kg/injection, schedule: Q01DX005 (ip), vehicle: saline): 8 of 8 | survivor count (dose: 60.0 mg/kg/injection, schedule: Q01DX005 (iv), vehicle: saline): 0 of 8 | T/C (dose: 60.0 mg/kg/injection, schedule: Q04DX003 (ip), vehicle: saline): 89, 154, 291, 372 % of control | survivor count (dose: 64.0 mg/kg/injection, schedule: Q01DX009 (ip), vehicle: Klucel (hydroxypropylcellulose) (HPC)): 8 of 10 and 9 of 10 | survivor count (dose: 64.0 mg/kg/injection, schedule: Q01DX009 (ip), vehicle: acid diluted with saline): 10 of 10 | survivor count (dose: 64.0 mg/kg/injection, schedule: Q01DX009 (ip), vehicle: saline with Tween-80): 4 of 6 (2×) and 6 of 6 | survivor count (dose: 64.0 mg/kg/injection, schedule: Q01DX009 (ip), vehicle: saline): 10 of 10 | survivor count (dose: 64.0 mg/kg/injection, schedule: Q01DX009 (ip), vehicle: water): 6 of 10, 4 of 6, 8 of 10, 5 of 6, 6 of 6 | survivor count (dose: 64.0 mg/kg/injection, schedule: Q04DX003 (ip), vehicle: saline with Tween-80): 5 of 6 | survivor count (dose: 80.0 mg/kg/injection, schedule: Q01DX001 (iv), vehicle: saline): 0 of 8 | survivor count (dose: 80.0 mg/kg/injection, schedule: Q04DX003 (ip), vehicle: saline): 7 of 8 | survivor count (dose: 80.0 mg/kg/injection, schedule: Q04DX003 (iv), vehicle: saline): 1 of 8 | survivor count (dose: 100.0 mg/kg/injection, schedule: Q01DX001 (ip), vehicle: saline): 7 of 8 | survivor count (dose: 100.0 mg/kg/injection, schedule: Q01DX009 (ip), vehicle: Klucel (hydroxypropylcellulose) (HPC)): 6 of 6 (2×) | survivor count (dose: 100.0 mg/kg/injection, schedule: Q01DX009 (ip), vehicle: saline): 2 of 6 and 4 of 6 | survivor count (dose: 100.0 mg/kg/injection, schedule: Q01DX009 (ip), vehicle: water): 3 of 6 | T/C [3]: 185 % of control | survivor count [3]: 5 of 8, 7 of 8, 8 of 8 | survivor count (dose: 128.0 mg/kg/injection, schedule: Q01DX009 (ip), vehicle: saline with Tween-80): 2 of 6, 4 of 6, 6 of 6 | survivor count (dose: 128.0 mg/kg/injection, schedule: Q04DX003 (ip), vehicle: Klucel (hydroxypropylcellulose) (HPC)): 4 of 6 and 5 of 6 | survivor count (dose: 128.0 mg/kg/injection, schedule: Q04DX003 (ip), vehicle: saline with Tween-80): 2 of 6 | survivor count (dose: 160.0 mg/kg/injection, schedule: Q01DX001 (ip), vehicle: saline): 8 of 8 | survivor count (dose: 167.0 mg/kg/injection, schedule: Q01DX001 (ip), vehicle: saline): 4 of 8 | T/C (dose: 192.0 mg/kg/injection, schedule: Q04DX003 (ip), vehicle: saline): 149 % of control | survivor count (dose: 200.0 mg/kg/injection, schedule: Q01DX009 (ip), vehicle: Klucel (hydroxypropylcellulose) (HPC)): 2 of 6 and 3 of 6 | survivor count (dose: 200.0 mg/kg/injection, schedule: Q01DX009 (ip), vehicle: saline): 0 of 6 | T/C (dose: 200.0 mg/kg/injection, schedule: Q04DX003 (ip), vehicle: Klucel (hydroxypropylcellulose) (HPC)): 127 % of control [survivors not given] | survivor count (dose: 256.0 mg/kg/injection, schedule: Q04DX003 (ip), vehicle: saline with Tween-80): 0 of 6 | survivor count (dose: 384.0 mg/kg/injection, schedule: Q04DX003 (ip), vehicle: saline): 6 of 6 | survivor count (dose: 400.0 mg/kg/injection, schedule: Q01DX009 (ip), vehicle: Klucel (hydroxypropylcellulose) (HPC)): 0 of 6 (2×) | survivor count (dose: 512.0 mg/kg/injection, schedule: Q04DX003 (ip), vehicle: saline with Tween-80): 0 of 6 | survivor count (dose: 512.0 mg/kg/injection, schedule: Q04DX003 (ip), vehicle: saline): 3 of 6 on day 9 and 6 of 6
